{"sequences": {"note": "By UniProt entry, the sequences of proteins in these tests, tags left out. Where a name states a change or a piece, a line headed by the entry shows the natural chain unless it says otherwise.", "UniProt Q03267": "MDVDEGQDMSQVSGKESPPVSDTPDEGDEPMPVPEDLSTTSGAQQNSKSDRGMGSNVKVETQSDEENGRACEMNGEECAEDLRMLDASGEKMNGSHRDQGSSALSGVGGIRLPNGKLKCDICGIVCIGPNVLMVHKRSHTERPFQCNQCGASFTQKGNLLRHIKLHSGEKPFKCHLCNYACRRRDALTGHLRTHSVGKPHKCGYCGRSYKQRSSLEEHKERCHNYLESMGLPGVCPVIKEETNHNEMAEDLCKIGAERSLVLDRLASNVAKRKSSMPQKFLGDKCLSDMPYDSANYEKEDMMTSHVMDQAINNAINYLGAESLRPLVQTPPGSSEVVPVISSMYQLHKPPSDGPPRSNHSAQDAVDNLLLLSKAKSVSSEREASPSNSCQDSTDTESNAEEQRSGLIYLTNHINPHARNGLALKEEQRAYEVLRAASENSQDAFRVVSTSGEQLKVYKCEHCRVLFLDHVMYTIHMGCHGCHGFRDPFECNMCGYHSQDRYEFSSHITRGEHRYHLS", "UniProt Q61188": "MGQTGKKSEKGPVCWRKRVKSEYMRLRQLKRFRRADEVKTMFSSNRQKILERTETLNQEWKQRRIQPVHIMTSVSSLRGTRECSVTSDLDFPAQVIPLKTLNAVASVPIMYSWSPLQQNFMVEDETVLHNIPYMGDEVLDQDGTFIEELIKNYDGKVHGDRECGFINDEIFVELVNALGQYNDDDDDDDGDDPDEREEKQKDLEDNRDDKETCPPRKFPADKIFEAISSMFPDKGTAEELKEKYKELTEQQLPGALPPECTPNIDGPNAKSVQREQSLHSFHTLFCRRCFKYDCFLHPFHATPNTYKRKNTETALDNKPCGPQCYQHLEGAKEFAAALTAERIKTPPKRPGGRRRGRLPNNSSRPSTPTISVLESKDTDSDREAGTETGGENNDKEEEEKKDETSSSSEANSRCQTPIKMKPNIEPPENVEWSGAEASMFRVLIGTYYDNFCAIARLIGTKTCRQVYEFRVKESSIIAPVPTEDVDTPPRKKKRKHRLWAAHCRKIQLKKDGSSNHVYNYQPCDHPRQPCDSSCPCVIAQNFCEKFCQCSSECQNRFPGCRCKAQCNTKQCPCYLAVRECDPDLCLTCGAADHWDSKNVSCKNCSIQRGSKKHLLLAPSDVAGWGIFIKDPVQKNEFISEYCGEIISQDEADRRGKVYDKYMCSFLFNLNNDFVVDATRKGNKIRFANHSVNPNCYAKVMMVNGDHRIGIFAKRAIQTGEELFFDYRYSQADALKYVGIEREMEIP"}, "source": "paper PMC4667618", "experiment_in_all_cases": "co-IP; nuclear extracts (RIPA buffer) of ILC87-Ik1-Bcl2 cells, or of ILC87-Bcl2 cells expressing Ikaros deletion mutants; IP with anti-Ikaros, anti-Suz12, anti-Ezh2 or IgG overnight at 4 °C; washed 5x with RIPA containing 300 mM NaCl; western blotting", "key": {"[1]": {"target": "Ikaros ΔDIM (Ik1 lacking the dimerization domain, aa457–508) (UniProt Q03267)"}, "[2]": {"target": "Ikaros ΔDBD (Ik1 lacking the DNA-binding domain, aa119–223) (UniProt Q03267)"}, "[3]": {"target": "Ikaros ΔN (Ik1 lacking the amino-terminal domain, aa1–114) (UniProt Q03267)"}}, "note": "These are yes or no findings as the source states them, for the method shown. In cells and extracts the contact can be indirect. For part of these data: Binding can be weak; no strength is given.", "data": [{"substance": "Ezh2 (from UniProt Q61188 1-746)", "values": [{"measurement": "binding", "setting": "[1]", "value": "no binding"}, {"measurement": "binding", "setting": "[2]", "value": "binds"}, {"measurement": "binding", "setting": "[3]", "value": "binds"}]}]}
